Drawing on publication doi:10.1101/2020.04.13.038935, this text covers binding for 1 molecule.

Results are given in words; binding and its absence hold for the method and conditions named. Binding seen in cells or lysates may run through a third protein. Some results given as binding are weak or reduced against the parent protein; the word gives no strength.

For the test, the target named is wild-type p53 tumor suppressor (human (endogenous in A549)), P04637. The test is described as follows: co-IP. As to conditions: remark: other sources report otherwise.

B1: Anterior GRadient 2 (AGR2, PDIA17), O95994 21-175 (protein)
chain: RDTTVKPGAKKDTKDSRPKLPQTLSRGWGDQLIWTQTYEEALYKSKTSNKPLMIIHHLDECPHSQALKKVFAENKEIQKLAEQFVLLNLVYETTDKHLSPDGQYVPRIMFVDPSLTVRADITGRYSNRLYAYEPADTALLLDNMKKALKLLKTEL
Take B1: the binding result is “binds”.
